# Assay results published in PubChem BioAssay AID1487 (National Center for Advancing Translational Sciences (NCATS), 2009).
# Values joined by “and” are separate entries in the source; they are usually repeats but may differ in a detail not shown here. Equal entries are not always repeated. This is one part of the list. Shown are side measurements of this screen, not its main read-out; they come without a call. The list favours compounds with an active or inconclusive main result. The note in brackets gives the kind of curve behind each potency; many fits are weak.
# Assay: qHTS Assay for Modulators of Lamin A Splicing
# Conditions: HeLa LMNA splicing GFP/RFP minigene ratio, 48 h
# Summary of the method: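 Read-out is the ratio of GFP to DsRed2 object intensity, acquired by 488 nm laser-scanning cytometry on HeLa lamin A-EGFP minigene reporter cells. Compound incubation 48 hrs at 37 °C in Opti-MEM with 2% FBS; DMSO 0.5% final.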
# [1] = measured here: GFP splicing reporter channel
# [2] = measured here: RFP viability control channel
SMILES,AC50 [1],AC50 [2]
COc1ccc(S(=O)(=O)N2CCN(CCC(=O)Nc3ccc(F)cc3)CC2)cc1,"11.2 µM [rising, partial curve]","22.4 µM [rising, partial curve]"
CNC(=S)N1N=C(c2ccccc2)CC1c1ccc(Br)cc1 (centres undefined),"22.4 µM [rising, single point]","35.5 µM [rising, single point]"
CCOc1ccc(CCNC(=O)c2cc3n(n2)CCCN(Cc2ccc(C)cc2)C3=O)cc1OCC,,"15.8 µM [rising, partial curve, poor fit]"
C/C(=N\NC(=O)CNc1cccc(Cl)c1C)c1cccs1,,"15.8 µM [falling, single point]"
COc1ccc(CN(Cc2ccccn2)S(=O)(=O)c2ccc(-n3cnnn3)c(OC)c2)cc1,,"20 µM [rising, single point]"
Cc1ccc(-c2cc(C(=O)N3N=C(C(F)F)CC3(O)C(F)F)c3ccccc3n2)cc1C (centres undefined),"4.47 µM [rising, partial curve]","14.1 µM [rising, partial curve]"
CO/N=C(\C(=O)N[C@@H]1C(=O)N2C(C(=O)O)=C(CSc3nc(=O)c(O)nn3C)CSC12)c1csc(N)n1 (some centres undefined),"0.00316 µM [rising, full curve, poor fit]",
CCCNS(=O)(=O)c1ccc(NC(=O)c2ccccn2)cc1,"31.6 µM [rising, single point]","35.5 µM [rising, single point]"
O=C(O)CSc1nnc2c(n1)[nH]c1ccccc12,"11.2 µM [falling, partial curve]","11.2 µM [falling, partial curve]"
CCOC(=O)C(C(=O)OCC)C(C)(C)/C(C)=N\Nc1ccc([N+](=O)[O-])cc1[N+](=O)[O-],,"14.1 µM [rising, partial curve]"
CCN(CC(=O)Nc1ccc(N2CCOCC2)cc1)C(=O)c1ccc(C#N)cc1,,"0.501 µM [falling, full curve, poor fit]"
Cc1ccc(N/C=C(/C#N)c2ccsc2)cc1,"10 µM [rising, partial curve, poor fit]","12.6 µM [rising, single point]"
CCc1cccc(NC(=O)Cn2c(=O)n(CC3CCC(C(=O)NC)CC3)c(=O)c3sccc32)c1 (centres undefined),"2 µM [falling, partial curve, poor fit]",
O=C(CSc1nnnn1-c1ccc(F)cc1)c1ccc(O)c(O)c1,"7.08 µM [falling, partial curve]","2.82 µM [falling, full curve, poor fit]"
CCc1ccc2oc(C(=O)NCc3ccncc3)c(C)c2c1,,"35.5 µM [rising, single point]"
O=C(c1ccccc1)c1nn(-c2ccccc2)c(=O)cc1C(F)(F)F,,"12.6 µM [falling, partial curve]"
CC12CCC(C(=O)n3c1nc1ccccc13)C2(C)C (centres undefined),,"15.8 µM [rising, partial curve]"
CSc1ccc(Cc2ccc(Cl)cc2Cl)nn1,,"17.8 µM [rising, single point]"
CCCSC1=NC2(CCN(C(=O)NC3CCCCC3)CC2)N=C1c1ccc(OC)cc1,,"35.5 µM [rising, single point]"

# Retrieved by structure from the list above (2):
SMILES,AC50 [1],AC50 [2]
O=C(CSc1nnnn1-c1ccc(F)cc1)c1ccc(O)c(O)c1,"7.08 µM [falling, partial curve]","2.82 µM [falling, full curve, poor fit]"
CCN(CC(=O)Nc1ccc(N2CCOCC2)cc1)C(=O)c1ccc(C#N)cc1,,"0.501 µM [falling, full curve, poor fit]"

# The listing continues.

SMILES,AC50 [1],AC50 [2]
CC1(C)CC(=O)C(C=NCC2CCN(C(=O)Cc3ccccc3)CC2)=C(O)C1,,"0.00316 µM [falling, full curve, poor fit]"
COc1ccc(-c2noc(C3CCCN(C(=O)Nc4ccccc4)C3)n2)cc1 (centres undefined),"0.631 µM [rising, full curve, poor fit]",
C=CCc1ccc(OCCOc2cccc3cccnc23)c(OC)c1,"2.82 µM [rising, partial curve, poor fit]","31.6 µM [rising, single point]"
O=C(O)c1ccc(CS(=O)c2cccc(C(F)(F)F)c2)o1 (centres undefined),,"2.82 µM [rising, full curve]"
Cc1nc(-c2cccc(F)c2)sc1CCNC(=O)Cc1ccc(F)cc1,,"3.16 µM [falling, partial curve, poor fit]"
COc1ccc(C(=O)Nn2cc3c(c2-c2ccccc2)c(=O)n(C)c(=O)n3C)cc1,,"11.2 µM [falling, partial curve]"
C=CCc1cc(Cl)ccc1OCCCNCCO,,"2 µM [falling, full curve]"
Cc1ccc(S(=O)(=O)Nc2ccccc2CNc2ccccn2)cc1,,"22.4 µM [rising, partial curve, poor fit]"
CC1CCN(CCCNC(=O)CN2C(=O)CSc3ccc(S(=O)(=O)N4CCCCC4)cc32)CC1,,"0.158 µM [falling, full curve, poor fit]"
O=C1C2C3CCC(C3)C2C(=O)N1CNc1ccccc1 (centres undefined),"35.5 µM [falling, single point]","31.6 µM [falling, single point]"
CCN1CCCC1CNC(=O)c1cc2c(-c3ccc(Cl)cc3)nn(C)c2s1 (centres undefined),"35.5 µM [rising, single point]","35.5 µM [rising, single point]"
CC1=NN(c2nc(-c3ccc(C)cc3)cs2)C(=O)C1N=Nc1ccc(C(N)=O)cc1 (centres undefined),"6.31 µM [falling, single point]","3.55 µM [falling, partial curve]"
O=C(c1cccs1)N1CCCc2cc(NS(=O)(=O)c3ccc(Br)cc3)ccc21,,"12.6 µM [rising, partial curve, poor fit]"
CN1CCN(C(=S)c2cn(Cc3ccccc3)c3ccccc23)CC1,,"28.2 µM [rising, single point]"
O=C(CN1c2cccc3cccc(c23)S1(=O)=O)Nc1cccc(S(=O)(=O)N2CCOCC2)c1,,"11.2 µM [rising, single point]"
CN(C)/C=C1/C(=O)N(c2ccc([N+](=O)[O-])cc2)N=C1c1ccccc1,,"14.1 µM [rising, partial curve]"
O=C1Nc2cc(C(=O)N3CCc4ccccc4C3)ccc2S/C1=C\c1ccccc1,,"22.4 µM [rising, single point]"
CCc1ccc(NCc2cc3cc4c(cc3n(CC(=O)Nc3ccc(OC)cc3)c2=O)OCO4)cc1,,"0.794 µM [falling, full curve, poor fit]"
CCn1c(SCC(=O)N(C)C2CCS(=O)(=O)C2)nnc1-c1cccs1 (centres undefined),"5.62 µM [rising, single point]",

SMILES,AC50 [1],AC50 [2]
Cc1nn(-c2ccccc2)c(Oc2ccccc2)c1C=O,"35.5 µM [rising, single point]","35.5 µM [rising, single point]"
Cn1c(SCC(=O)N2CCOCC2)ncc(C(=O)Nc2ccc(F)cc2)c1=O,,"14.1 µM [rising, single point]"
COc1c(S(=O)(=O)N2CCN(c3ccc(F)cc3)CC2)ccc(Cl)c1Cl,,"31.6 µM [rising, single point]"
C/C(=C\c1ccccc1)C(=O)N1CCN(c2cccc(C(F)(F)F)c2)CC1,,"35.5 µM [rising, single point]"
CC(=O)c1ccc(NC(=O)C(C)OC(=O)c2ccc3c(c2)nc(C)n3-c2ccccc2)cc1 (centres undefined),"17.8 µM [rising, single point]",
Cc1nc([N+](=O)[O-])c(Br)n1CC(=O)c1ccc(F)cc1,,"35.5 µM [falling, single point]"
CNc1nc(SC)nc(N(C)C#N)n1,,"0.398 µM [falling, full curve, poor fit]"
Cn1c(=O)c2c(ncn2CCO)n(C)c1=O,"0.794 nM [falling, full curve, poor fit] and 2.24 µM [rising, full curve]","3.16 µM [falling, single point] and 2.24 µM [falling, single point]"
Cc1cccc(-c2nnn(C/C(N)=N/O)n2)c1,"7.94 µM [falling, partial curve]","5.01 µM [falling, partial curve]"
CCCCOc1ccc(CC(=O)NCC(=O)O)cc1,"0.501 µM [rising, full curve, poor fit]","0.891 µM [rising, partial curve]"
COc1ccc(CCNC[C@@H](O)c2ccc(O)cc2)cc1OC,"0.891 µM [falling, full curve, poor fit]","1.12 µM [falling, full curve, poor fit]"
Fc1ccc(-c2csc(N3CCC(c4ccccc4)C3)n2)cc1 (centres undefined),"35.5 µM [falling, single point]",
CCOC(=O)C1(CCOC)CCN(C(C)CCc2ccc(OC)cc2)CC1 (centres undefined),,"2.51 µM [falling, full curve]"
N#CCSc1nn(-c2ccc(F)cc2)c(=S)s1,,"0.0708 µM [falling, full curve, poor fit]"
Cc1cccc(N(C)S(=O)(=O)c2nnc(NC(=O)C(C)(C)C)s2)c1,,"2.82 µM [rising, full curve, poor fit]"
CCOC(=O)COc1ccccc1/C=C\[N+](=O)[O-],"3.55 µM [falling, single point]","4.47 µM [falling, single point]"
COc1cc(C(=O)N/N=C(\c2ccccc2)c2ccccn2)cc(OC)c1OC,"35.5 µM [rising, single point]","7.08 µM [rising, partial curve, poor fit]"
Cn1c(SCC(=O)N(Cc2ccccc2)C(C)(C)C)nc2ccccc21,,"12.6 µM [rising, single point]"
